Results from article PMC6597245.
Results are given in words; binding and its absence hold for the method and conditions named. In cells and extracts the contact can be indirect. Some binding calls cover weakened binding; strength is not graded here. Blank lines part the entries; values can stand above or below the substance they belong to.

By UniProt entry, the sequences of proteins in these tests, tags left out. Where a name states a change or a piece, a line headed by the entry shows the natural chain unless it says otherwise.
UniProt Q8IWT6: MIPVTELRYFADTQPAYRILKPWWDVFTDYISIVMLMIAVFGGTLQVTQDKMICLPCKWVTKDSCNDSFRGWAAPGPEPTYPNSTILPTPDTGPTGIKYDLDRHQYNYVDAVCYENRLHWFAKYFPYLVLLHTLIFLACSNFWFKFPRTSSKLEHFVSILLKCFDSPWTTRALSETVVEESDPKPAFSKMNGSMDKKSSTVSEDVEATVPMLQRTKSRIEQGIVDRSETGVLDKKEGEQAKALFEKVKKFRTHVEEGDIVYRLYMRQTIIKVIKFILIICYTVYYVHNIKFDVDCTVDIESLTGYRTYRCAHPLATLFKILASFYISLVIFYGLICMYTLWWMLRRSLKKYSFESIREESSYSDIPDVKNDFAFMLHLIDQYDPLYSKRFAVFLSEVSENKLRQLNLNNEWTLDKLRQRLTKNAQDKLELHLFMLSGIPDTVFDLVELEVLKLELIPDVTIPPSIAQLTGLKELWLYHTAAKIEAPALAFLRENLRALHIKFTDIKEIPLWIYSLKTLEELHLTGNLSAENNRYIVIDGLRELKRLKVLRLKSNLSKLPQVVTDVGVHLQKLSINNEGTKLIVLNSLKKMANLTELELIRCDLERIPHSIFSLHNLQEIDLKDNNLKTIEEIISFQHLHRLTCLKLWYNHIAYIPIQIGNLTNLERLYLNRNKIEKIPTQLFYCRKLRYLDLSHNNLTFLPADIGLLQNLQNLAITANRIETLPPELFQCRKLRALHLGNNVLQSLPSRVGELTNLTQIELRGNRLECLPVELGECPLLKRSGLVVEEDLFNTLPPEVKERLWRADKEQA
UniProt Q6NSJ5: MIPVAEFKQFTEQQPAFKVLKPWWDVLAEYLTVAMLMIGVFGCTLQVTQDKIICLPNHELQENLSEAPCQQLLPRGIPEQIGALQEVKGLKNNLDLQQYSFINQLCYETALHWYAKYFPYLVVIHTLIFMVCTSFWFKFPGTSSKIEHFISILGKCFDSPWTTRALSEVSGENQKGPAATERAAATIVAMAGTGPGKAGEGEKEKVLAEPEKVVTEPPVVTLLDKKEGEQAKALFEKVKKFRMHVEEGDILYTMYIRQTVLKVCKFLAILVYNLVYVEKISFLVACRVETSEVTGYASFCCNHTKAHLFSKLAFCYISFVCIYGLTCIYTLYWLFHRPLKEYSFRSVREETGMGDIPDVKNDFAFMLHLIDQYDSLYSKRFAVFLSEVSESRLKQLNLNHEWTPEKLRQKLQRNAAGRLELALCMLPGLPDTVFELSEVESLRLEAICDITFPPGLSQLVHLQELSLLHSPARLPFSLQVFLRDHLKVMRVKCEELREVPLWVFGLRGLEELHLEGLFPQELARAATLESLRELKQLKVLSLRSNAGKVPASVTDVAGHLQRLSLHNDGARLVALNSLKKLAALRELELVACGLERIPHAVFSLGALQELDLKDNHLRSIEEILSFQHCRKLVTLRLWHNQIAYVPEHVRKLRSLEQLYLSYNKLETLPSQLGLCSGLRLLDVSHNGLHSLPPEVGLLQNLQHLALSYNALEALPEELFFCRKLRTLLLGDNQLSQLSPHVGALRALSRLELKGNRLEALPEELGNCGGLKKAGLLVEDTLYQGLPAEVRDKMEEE

Legend:
LRRC8A-YFP (human) = LRRC8A-YFP (human) (UniProt Q8IWT6); assay: FRET or BRET; acceptor photo-bleaching FRET in live HeLa cells co-expressing the CFP- and YFP-tagged proteins; YFP bleached with 515-560 nm light, change of CFP intensity against unbleached cells in the same field of view; room temperature, isotonic imaging buffer pH 7.4; without BFA, or with 5 µg/ml BFA during expression (proteins trapped in the ER)
LRRC8A-Cerulean (human) = LRRC8A-Cerulean (human) (UniProt Q8IWT6); assay: FRET or BRET; sensitized-emission FRET (cFRET) with simultaneous whole-cell patch clamp (patch-clamp fluorometry) in HEK293 KO cells deficient for all five LRRC8 genes, Cerulean/Venus pair; isotonic and hypotonic bath solution
LRRC8A-CFP (human) [1] = target: LRRC8A-CFP (human) (UniProt Q8IWT6); assay: FRET or BRET; acceptor photo-bleaching FRET in live HeLa cells co-expressing the CFP- and YFP-tagged proteins; YFP bleached with 515-560 nm light, change of CFP intensity against unbleached cells in the same field of view; room temperature, isotonic imaging buffer pH 7.4; without BFA, or with 5 µg/ml BFA during expression (proteins trapped in the ER)
LRRC8A-CFP (human) [2] = target: LRRC8A-CFP (human) (UniProt Q8IWT6); assay: FRET or BRET; sensitized-emission FRET (cFRET) in live HeLa or HEK293 cells co-expressing the CFP- and YFP-tagged proteins; room temperature; isotonic (340 mOsm) and hypotonic (250 mOsm) buffer; for A-CFP-FM2 10, 80 or 165 min after 0.5 µM D/D solubilizer
[3] = target: LRRC8A^N66A,N83A-CFP (human) (UniProt Q8IWT6); assay: as above
LRRC8A-CFP-FM2 (human) = LRRC8A-CFP-FM2 (human) (UniProt Q8IWT6); assay: as above

binding (LRRC8A-YFP (human)): binds
Substance: LRRC8E-CFP (from UniProt Q6NSJ5 1-796)

Substance: LRRC8E-Venus (from UniProt Q6NSJ5 1-796)
binding (LRRC8A-Cerulean (human)): binds

binding (LRRC8A-CFP (human) [1]): binds
Substance: LRRC8E-YFP (from UniProt Q6NSJ5 1-796)
binding (LRRC8A-CFP (human) [2]): binds
binding [3]: binds
binding (LRRC8A-CFP-FM2 (human)): binds
